Drawing on PubChem BioAssay AID2685 (National Center for Advancing Translational Sciences (NCATS), 2010), this text covers cell number change and AC50 for 60 molecules.

The experiment can be described thus: qHTS Assay for Lipid Storage Modulators in Drosophila S3 Cells.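 On cell number change: cells counted by Cell Tracker Red CMTPX staining in the red channel.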 Particulars: BODIPY lipid droplet fluorescence, 18-24 h; for cell number change: measured here: cell count max response, cells fed with added oleic acid. The procedure, abridged: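 Laser-scanning cytometry quantifies lipid droplet accumulation (500–530 nm total intensity; droplet/cell object ratio) in oleic acid-fed (400 uM added) Drosophila S3 cells treated with a concentration series. 20 uM Triacsin C defined 100% inhibition.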

The mark [1] stands for this setting: measured here: lipid fluorescence (Fed channel) AC50, cells fed with added oleic acid.
[2] abbreviates: measured here: cell number channel AC50, cells fed with added oleic acid.

Structures are written as SMILES. The list shows a part of the results. Shown are side measurements of this screen, not its main read-out; they come without a call. Compounds called inactive in the main read-out are mostly missing here. Words in brackets tell the shape of the fitted curve; partial curves, single points and poor fits give uncertain potencies.

As to `Cc1cc(OCC(=O)NCc2cccnc2)c2c(C)c(C)c(=O)oc2c1`, the cell number change is -5.42%.

Consider `COc1ccccc1CN1Cc2cccc3c2[C@@H](CC1=O)[C@H](O)[C@H](O)C3`, for which the cell number change was found to be 14.9%. The AC50 (commonly the midpoint of the concentration-response curve, whichever way the signal moves) under setting [1] is 29.1 µM [rising, single point].

`O=C(/C(=C/O)N=Nc1ccccc1)c1cccs1`: the cell number change was -33.5%.

`CN(C)c1ccnc2sc3c(NCC(O)CO)ncnc3c12` (stereo not drawn): the cell number change was -3.81%.

Regarding `NC(=O)CC(NC(=O)c1ccccc1)c1ccc(NCc2ccc(F)c(F)c2)c([N+](=O)[O-])c1` (stereo not drawn), the cell number change is -11.1%.

`CC(=O)Nc1ccc(SC(C)C(=O)NC2CCCC2)cc1` (stereo not drawn): the cell number change worked out at 18.8%.

Turning to `O=C(NN=C1CCCC1)c1ccccc1OCc1ccc(Cl)cc1`, the cell number change was 50.4%. Besides, under setting [2], the AC50 was 10.3 µM [rising, partial curve, poor fit].

For the molecule `Cc1c(CCC(=O)NCCCN2CCCC2=O)c(=O)oc2c(C)c(O)ccc12`, under setting [2], the AC50 is 0.13 µM [rising, full curve, poor fit].

`COc1cc(C(=O)Nc2cccc3cccnc23)cc(OC)c1OC`: the cell number change is -21.5%. Further, the AC50 under setting [1] is 23.1 µM [falling, single point].

Regarding `CCC1(c2ccccc2)NC(=O)N(CC(=O)Nc2ccc(S(=O)(=O)Nc3ncccn3)cc2)C1=O` (stereo not drawn), the cell number change was -20.5%. Under setting [1], the AC50 was 25.9 µM [falling, partial curve].

Take `Cn1c(CO)cnc1SCc1ccc([N+](=O)[O-])cc1`: the cell number change came to 8.05%. In addition, the AC50 under setting [1] was 32.6 µM [falling, single point].

On to `COc1cc(OC)cc(C(=O)N2CCN(C(=O)COc3ccc4ccccc4c3)CC2)c1`, for which the cell number change was found to be 2.57%. In addition, under setting [2], the AC50 is 0.366 µM [rising, single point].

`O=c1c2cnn(-c3ccccc3)c2ncn1Cc1ccccc1F`: the cell number change worked out at 3.41%.

In the case of `Cc1cc(C)cc(OCC(=O)N2N=C(c3cccnc3)CC2(O)C(F)(F)F)c1` (stereo not drawn), the cell number change was 16.6%. The AC50 under setting [1] is 2.06 µM [rising, full curve].

As for `COc1cc(-c2ccccc2)nc2ccccc12`, the cell number change is -50.8%. Moreover, the AC50 under setting [2] is 20.6 µM [falling, single point]. Besides, under setting [1], the AC50 is 20.6 µM [falling, single point].

Consider `CCn1c(-c2ccccc2O)n[nH]c1=S`, for which the cell number change is 6.41%.

`CCNc1ccc(C(=O)OCC(=O)NC(C)c2ccccc2)cc1[N+](=O)[O-]` (stereo not drawn): the cell number change stood at 20.1%. Further, under setting [1], the AC50 is 0.326 µM [rising, full curve].

Turning to `COc1ccc2cc(C(c3nnnn3Cc3ccccc3)N3CCCCCC3)c(=O)[nH]c2c1` (stereo not drawn), the cell number change was -10.9%. Under setting [1], the AC50 is 1.16 µM [rising, single point].

With `COCCOc1ccc(C(F)(F)F)cc1NC(=O)COC(=O)Cc1c[nH]c2ccccc12`, the cell number change was 11.1%. Under setting [2], the half-maximal activity concentration (AC50) was 6.51 µM [rising, single point]. Further, the AC50 under setting [1] is 6.51 µM [rising, single point].

`CN1CCCC(CN2c3ccccc3Sc3ccccc32)C1` (stereo not drawn): the cell number change is -6.4%.

For `CN1CC(=O)N2C(c3cccc([N+](=O)[O-])c3)c3[nH]c4ccccc4c3C[C@H]2C1=O` (stereo partly drawn), the cell number change is -25.5%. In addition, the AC50 under setting [2] is 1.16 µM [falling, full curve, poor fit].

`O=C(Cn1cc(C(F)(F)F)ccc1=O)N/N=C/c1ccccc1`: the cell number change was 68.4%. Besides, the AC50 under setting [1] is 0.0058 µM [falling, full curve, poor fit].

On to `COc1ccc2occ(C(=O)c3ccccc3)c2c1`, for which the AC50 is, setting by setting: under setting [2], 4.11 µM [falling, single point]; under setting [1], 6.51 µM [falling, single point].

As for `CCCN1C(=O)c2cc(C(=O)NCCc3cccc(C)c3)ccc2C1O` (stereo not drawn), the cell number change is -11.7%. Moreover, under setting [1], the AC50 was 0.116 µM [rising, full curve].

As for `COc1ccc(-n2c(-c3ccc(Cl)cc3Cl)n[nH]c2=S)c(OC)c1`, the cell number change came out at 3.86%. Moreover, the AC50 under setting [1] is 1.16 µM [rising, full curve].

In the case of `COCCNC(=O)C(c1ccccc1)N(Cc1cccs1)C(=O)Cn1nnc2ccccc21` (stereo not drawn), the cell number change was found to be 16%. Moreover, the AC50 under setting [1] was 29.1 µM [rising, single point].

For the molecule `CC(Oc1cccc(Br)c1)C(=O)NNC(=O)CCNC(=O)c1ccccc1Cl` (stereo not drawn), the cell number change is -5.01%. Also, under setting [1], the AC50 is 4.11 µM [falling, full curve].

`CCC(C(=O)NC(C)(C)C)N(Cc1ccco1)C(=O)Cn1nnc(-c2ccc(F)cc2)n1` (stereo not drawn): the cell number change was found to be 5.86%. Also, the AC50 under setting [2] is 0.231 µM [rising, full curve, poor fit].

As for `O=C(CN1CCCC1)NCC(=O)Nc1ccc(F)cc1`, the cell number change was -0.34%. Besides, the AC50 under setting [1] was 6.51 µM [falling, single point].

Consider `CCOC(=O)C(NC(=O)c1ccc(Cl)cc1Cl)(Nc1ccc(C)cc1)C(F)(F)F` (stereo not drawn), for which the cell number change is -30.5%. Further, the AC50 under setting [2] was 29.1 µM [falling, single point]. For the same molecule, the AC50 under setting [1] was 20.6 µM [falling, partial curve, poor fit].

For `O=C(NCC(c1ccco1)N1CCCC1)c1cn(-c2ccccc2)nc1-c1ccc(F)cc1` (stereo not drawn), the cell number change is -18.6%. For the same molecule, under setting [1], the AC50 is 0.092 µM [rising, full curve, poor fit].

Turning to `COc1ccc(OC)c(C2=NOC(C(=O)NCc3ccco3)C2)c1` (stereo not drawn), the cell number change was -3.62%. Also, the AC50 under setting [1] is 29.1 µM [rising, single point].

Turning to `O=C(O)CCN1CC2([N+](=O)[O-])C=CC(=O)C([N+](=O)[O-])(C1)C2CC(=O)c1ccccc1` (stereo not drawn), the cell number change was -0.402%. The AC50 under setting [1] was 20.6 µM [rising, partial curve].

As for `O=C(NCCN1CCOCC1)c1cc(S(=O)(=O)NCCCN2CCCC2=O)ccc1Cl`, the cell number change stood at 3.51%. Under setting [1], the AC50 is 29.1 µM [falling, single point].

For `CCOC(=O)c1sc2nc(CSc3ccccc3)nc(N3CCCN(C)CC3)c2c1C`, the cell number change is -85.6%. Besides, under setting [2], the AC50 was 18.4 µM [falling, single point]. For the same molecule, the half-maximal activity concentration (AC50) under setting [1] was 23.1 µM [falling, single point].

With `Cc1ccc(-c2nn(-c3ccccc3)cc2/C=C(\C#N)c2cccc(C#N)c2)o1`, the cell number change stood at 2.11%. In addition, the AC50 under setting [1] is 0.13 µM [rising, full curve].

With `O=C(CSc1ccc(-c2cccs2)nn1)c1cccs1`, the cell number change is 11.9%. Moreover, under setting [2], the half-maximal activity concentration (AC50) is 1.16 µM [rising, single point]. Also, the AC50 under setting [1] was 0.0326 µM [rising, full curve, poor fit].

`O=C(Oc1ccc(OC(=O)N2CCOCC2)cc1)c1ccccc1`: the cell number change is -35.6%. Under setting [2], the AC50 is 13 µM [falling, partial curve].

With `CC(C)(C)C(=O)Nc1ccc(Oc2ccc3c(c2)C(=O)N(c2ccc(O)cc2)C3=O)cc1`, the cell number change is -9.85%.

On to `COC(=O)c1c(C)[nH]c(C(=O)C(C)OC(=O)c2cc(C)oc2C)c1C` (stereo not drawn), for which the cell number change is -47.1%. The AC50 under setting [2] is 29.1 µM [falling, single point]. The AC50 under setting [1] was 29.1 µM [falling, single point].

Regarding `CC(=O)Nc1nc(-c2ccccc2)nc(-c2ccccc2OC(C)=O)n1`, the cell number change is -30.3%. Further, under setting [2], the AC50 is 1.64 µM [falling, partial curve, poor fit]. For the same molecule, the AC50 under setting [1] was 0.00651 µM [rising, full curve, poor fit].

Consider `Cc1ccccc1OCC(=O)NCCCNC(=O)c1ccco1`, for which the cell number change came to 5.42%. Further, under setting [1], the AC50 was 25.9 µM [rising, single point].

On to `O=C(NCCN1CCN(c2ccccc2)CC1)Nc1cccc(Cl)c1`, for which the cell number change was -9.09%. In addition, under setting [1], the AC50 was 18.4 µM [falling, partial curve].

For the molecule `Cc1ccc(S(=O)(=O)N2CC(O)CC2C(=O)NCc2ccc3c(c2)OCO3)cc1` (stereo not drawn), the cell number change was -24%. Further, under setting [2], the AC50 is 4.61 µM [falling, full curve, poor fit]. For the same molecule, the AC50 under setting [1] is 20.6 µM [falling, single point].

For `COc1ccc(S(=O)(=O)n2c([N+](=O)[O-])cnc2C)cc1OC`, the cell number change came to 6.42%. Further, the AC50 under setting [1] was 29.1 µM [rising, single point].

Regarding `Cc1ccc(NC(=O)c2ccccc2Cl)c(Cl)c1`, the cell number change worked out at 46.9%. Besides, under setting [2], the AC50 was 9.2 µM [rising, partial curve]. Further, the AC50 under setting [1] is 3.26 µM [rising, partial curve].

In the case of `COc1ccc(C(=O)NCCN2CCCC2)cc1[N+](=O)[O-]`, the cell number change was 34.5%. In addition, the AC50 under setting [2] was 0.82 µM [rising, full curve, poor fit].

Regarding `O=C(Cn1nnc2ccccc2c1=O)Nc1ccc2c(c1)CCC2`, the cell number change was -0.786%.

As to `CCS(=O)(=O)N1CCC(C(=O)Nc2cccc(F)c2)CC1`, the cell number change is -5.25%. Moreover, the AC50 under setting [1] was 5.17 µM [rising, full curve].

Regarding `Cc1onc(-c2ccccc2)c1C(=O)Nc1ccccc1NC(=O)c1c(-c2ccccc2)noc1C`, the cell number change stood at 17%. Under setting [1], the AC50 was 0.058 µM [rising, full curve, poor fit].

On to `CCOc1ccc(OCCC(=O)OCC(=O)Nc2ccc3c(c2)OCO3)cc1`, for which the cell number change worked out at 4.5%.

Consider `CCN(CC)Cc1c(O)c(Cl)cc2c(C)cc(=O)oc12`, for which the cell number change was -26%. Besides, under setting [1], the AC50 is 0.731 µM [falling, full curve].

`CC(=O)Nc1ccc(NC(=O)CSc2ccc3nnc(-c4cccnc4)n3n2)cc1`: the cell number change is 11.4%. Also, the AC50 under setting [1] was 0.0291 µM [rising, full curve, poor fit].

Take `CCN(CC(=O)Nc1ccc(NC(C)=O)cc1)C(=O)/C=C/c1cccs1`: the cell number change turned out to be 2.46%. Also, the AC50 under setting [1] was 0.00517 µM [rising, full curve, poor fit].

`COc1ccc(-c2[nH]n(-c3ccc([N+](=O)[O-])cc3)c(=O)c2C=NCc2ccccc2)cc1`: the cell number change is -14.3%.

As to `CCC(C(=O)NCc1ccco1)N(C(=O)CNS(=O)(=O)c1ccccc1)C1CCCCC1` (stereo not drawn), the cell number change is -55.9%. Further, under setting [2], the AC50 was 32.6 µM [falling, single point].

For the molecule `COc1ccccc1NC(=O)N1CCC(NC(=O)C(Cc2ccccc2F)NC(C)=O)CC1` (stereo not drawn), the cell number change came to 10.3%. For the same molecule, under setting [1], the AC50 was 0.116 µM [falling, single point].

As to `COc1cccc(C(=O)NC(=S)NCc2ccco2)c1`, the cell number change was 36.1%. In addition, under setting [2], the half-maximal activity concentration (AC50) was 11.6 µM [rising, partial curve]. Moreover, the AC50 under setting [1] is 1.84 µM [rising, partial curve].

On to `COc1ccc(CCC(=O)NC2CCCc3ccccc32)cc1OC` (stereo not drawn), for which the cell number change stood at 4.96%. In addition, the AC50 under setting [1] was 29.1 µM [rising, partial curve, poor fit].

Regarding `CCc1ccc(Nc2cc(=O)n(C3CCCCC3)c(=O)[nH]2)cc1`, the cell number change stood at 168%. In addition, the AC50 under setting [2] is 23.1 µM [rising, single point]. In addition, the AC50 under setting [1] is 4.61 µM [rising, partial curve].
